These are yes or no findings as the source states them, for the method shown. Binding seen in cells or lysates may run through a third protein. Some binding calls cover weakened binding; strength is not graded here. For part of these data: Tags and fused reporters may be left off the sequences shown.

By UniProt entry, the sequences of proteins in these tests, tags left out. Where a name states a change or a piece, a line headed by the entry shows the natural chain unless it says otherwise.
UniProt O15169, whole entry: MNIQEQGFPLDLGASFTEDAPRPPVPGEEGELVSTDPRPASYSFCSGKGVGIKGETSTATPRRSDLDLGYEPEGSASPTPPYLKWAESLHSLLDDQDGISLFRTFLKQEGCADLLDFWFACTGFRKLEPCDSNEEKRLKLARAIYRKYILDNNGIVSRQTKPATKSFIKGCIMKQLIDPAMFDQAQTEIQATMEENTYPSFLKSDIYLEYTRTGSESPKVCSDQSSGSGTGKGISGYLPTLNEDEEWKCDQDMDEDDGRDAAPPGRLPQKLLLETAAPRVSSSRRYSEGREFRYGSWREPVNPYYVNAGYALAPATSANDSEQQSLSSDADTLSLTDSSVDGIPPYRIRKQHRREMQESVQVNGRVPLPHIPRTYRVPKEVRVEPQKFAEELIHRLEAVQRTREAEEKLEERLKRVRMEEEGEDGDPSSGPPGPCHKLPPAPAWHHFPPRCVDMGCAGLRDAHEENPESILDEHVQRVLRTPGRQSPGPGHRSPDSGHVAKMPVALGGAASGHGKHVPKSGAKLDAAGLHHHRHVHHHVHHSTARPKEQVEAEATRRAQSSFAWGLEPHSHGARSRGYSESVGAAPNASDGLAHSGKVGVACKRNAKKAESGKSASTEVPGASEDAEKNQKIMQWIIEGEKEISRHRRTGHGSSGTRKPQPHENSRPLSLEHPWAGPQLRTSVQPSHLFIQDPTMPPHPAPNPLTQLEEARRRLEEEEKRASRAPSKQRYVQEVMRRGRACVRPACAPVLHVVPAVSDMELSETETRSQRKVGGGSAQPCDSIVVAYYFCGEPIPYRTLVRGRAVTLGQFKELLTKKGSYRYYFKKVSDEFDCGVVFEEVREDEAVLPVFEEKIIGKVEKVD
UniProt P35222, whole entry: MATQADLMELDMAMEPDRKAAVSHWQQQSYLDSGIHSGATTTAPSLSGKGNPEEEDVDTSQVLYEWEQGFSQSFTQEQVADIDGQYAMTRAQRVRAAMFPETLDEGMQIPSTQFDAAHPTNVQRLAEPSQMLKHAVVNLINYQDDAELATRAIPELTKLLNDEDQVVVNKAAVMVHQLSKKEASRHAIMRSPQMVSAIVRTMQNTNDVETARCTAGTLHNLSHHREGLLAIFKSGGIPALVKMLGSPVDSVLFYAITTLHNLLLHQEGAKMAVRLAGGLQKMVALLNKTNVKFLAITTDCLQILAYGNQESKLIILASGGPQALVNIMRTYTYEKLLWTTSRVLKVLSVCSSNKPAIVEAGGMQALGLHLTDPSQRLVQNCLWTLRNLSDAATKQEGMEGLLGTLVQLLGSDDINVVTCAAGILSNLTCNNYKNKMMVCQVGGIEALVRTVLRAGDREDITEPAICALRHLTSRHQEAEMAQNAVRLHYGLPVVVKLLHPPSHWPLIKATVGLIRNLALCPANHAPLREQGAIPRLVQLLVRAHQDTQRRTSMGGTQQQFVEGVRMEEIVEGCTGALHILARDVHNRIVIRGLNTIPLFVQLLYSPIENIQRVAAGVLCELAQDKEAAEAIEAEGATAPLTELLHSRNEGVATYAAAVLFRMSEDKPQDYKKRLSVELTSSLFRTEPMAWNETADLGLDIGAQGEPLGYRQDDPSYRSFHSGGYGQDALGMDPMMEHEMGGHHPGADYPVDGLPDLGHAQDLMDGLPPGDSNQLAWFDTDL

Assay [1] addresses T1, Flag-tagged wild-type Nek10 (human) (UniProt Q6ZWH5).
T1 sequence: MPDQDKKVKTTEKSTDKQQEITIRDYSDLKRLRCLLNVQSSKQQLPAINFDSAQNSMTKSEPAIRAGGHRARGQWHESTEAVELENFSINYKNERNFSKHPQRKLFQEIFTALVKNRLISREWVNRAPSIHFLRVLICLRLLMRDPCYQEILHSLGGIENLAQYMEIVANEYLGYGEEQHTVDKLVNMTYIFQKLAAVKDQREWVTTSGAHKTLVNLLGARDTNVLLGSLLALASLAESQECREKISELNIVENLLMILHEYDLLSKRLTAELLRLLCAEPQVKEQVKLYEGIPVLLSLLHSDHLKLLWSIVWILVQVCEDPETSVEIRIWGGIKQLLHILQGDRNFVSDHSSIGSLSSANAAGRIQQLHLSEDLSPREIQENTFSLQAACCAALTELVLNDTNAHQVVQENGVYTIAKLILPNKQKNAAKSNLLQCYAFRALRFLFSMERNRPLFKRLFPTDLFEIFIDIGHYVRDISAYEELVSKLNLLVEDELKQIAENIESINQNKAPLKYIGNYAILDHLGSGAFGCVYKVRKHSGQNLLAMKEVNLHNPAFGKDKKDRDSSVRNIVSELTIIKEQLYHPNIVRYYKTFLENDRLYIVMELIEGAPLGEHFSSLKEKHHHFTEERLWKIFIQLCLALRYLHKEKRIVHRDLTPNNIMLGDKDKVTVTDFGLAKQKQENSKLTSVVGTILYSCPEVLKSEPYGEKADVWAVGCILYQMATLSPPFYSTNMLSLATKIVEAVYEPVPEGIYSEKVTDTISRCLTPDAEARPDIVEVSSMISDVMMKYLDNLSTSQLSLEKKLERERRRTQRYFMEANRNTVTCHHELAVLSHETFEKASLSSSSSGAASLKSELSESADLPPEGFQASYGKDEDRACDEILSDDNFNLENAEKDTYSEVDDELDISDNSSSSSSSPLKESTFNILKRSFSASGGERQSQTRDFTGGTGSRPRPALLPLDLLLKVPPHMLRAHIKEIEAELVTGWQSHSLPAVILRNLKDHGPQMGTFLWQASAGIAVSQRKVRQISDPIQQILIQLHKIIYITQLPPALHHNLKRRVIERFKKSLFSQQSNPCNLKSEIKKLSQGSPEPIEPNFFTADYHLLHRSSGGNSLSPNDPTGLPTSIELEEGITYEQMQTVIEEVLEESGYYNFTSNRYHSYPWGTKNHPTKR
Briefly: co-IP.

Assay [2] has as its target Myc-tagged Axin (human (cDNA from HT29 cells)) (UniProt O15169). Kind of assay: co-IP.

For the substance “Myc-tagged Axin (from UniProt O15169 1-862)”, in assay [1], the binding result is reported as “binds weakly”. As to “N-terminal HA-tagged Y30F mutant β-catenin (from UniProt P35222 1-781)”, in assay [2], the binding entry was “binds”. As for “N-terminal HA-tagged wild-type β-catenin (from UniProt P35222 1-781)”, the binding entry in assay [2] is “binds”; in assay [1], “no binding”. Consider “Ser45 phosphorylated β-catenin (endogenous, HEK293T cells) (from UniProt P35222 1-781)”, for which the binding result in assay [2] is given as “binds”. On to “β-catenin (endogenous, HEK293T cells) (from UniProt P35222 1-781)”, for which, in assay [2], the binding result is “binds”.
